Converted amounts (≈) assume the structure as drawn.

This assay has as its system Mycobacterium tuberculosis. Put plainly: Antitubercular activity against Mycobacterium tuberculosis H37Rv ATCC 27294. It counts as functional.

Consider `CO[C@H]1/C=C/O[C@@]2(C)Oc3c(C)c(O)c4c(O)c(c(/C=N/N5CCN(C)CC5)c(O)c4c3C2=O)NC(=O)/C(C)=C\C=C\[C@H](C)[C@H](O)[C@@H](C)[C@@H](O)[C@@H](C)[C@H](OC(C)=O)[C@@H]1C` [RIFAMPIN], for which the MIC stood at 0.125 µg/mL (≈ 0.152 µM).

In general, MIC refers to the lowest concentration found to suppress growth. Read a high MIC as a need for much substance.

For the origin of these results see ChEMBL document CHEMBL1150928, “A new antitubercular mulinane diterpenoid from Azorella madreporica Clos” (J Nat Prod, 1998).
